Here are results for one substance from article PMC6927666.

By UniProt entry, the sequences of proteins in these tests, tags left out.
UniProt Q15796: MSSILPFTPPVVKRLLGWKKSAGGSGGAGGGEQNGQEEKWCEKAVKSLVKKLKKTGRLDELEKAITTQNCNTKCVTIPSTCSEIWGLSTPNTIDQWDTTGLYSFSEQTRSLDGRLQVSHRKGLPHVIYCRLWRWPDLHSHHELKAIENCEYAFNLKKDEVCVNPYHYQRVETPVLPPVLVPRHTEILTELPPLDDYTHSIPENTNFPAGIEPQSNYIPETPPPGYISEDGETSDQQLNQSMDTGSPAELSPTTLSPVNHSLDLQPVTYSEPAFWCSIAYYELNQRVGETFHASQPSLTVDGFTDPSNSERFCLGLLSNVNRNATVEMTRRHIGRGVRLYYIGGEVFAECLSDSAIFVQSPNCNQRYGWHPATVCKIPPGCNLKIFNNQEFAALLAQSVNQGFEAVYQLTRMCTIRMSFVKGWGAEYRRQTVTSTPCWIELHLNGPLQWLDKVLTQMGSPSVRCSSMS
UniProt Q15797: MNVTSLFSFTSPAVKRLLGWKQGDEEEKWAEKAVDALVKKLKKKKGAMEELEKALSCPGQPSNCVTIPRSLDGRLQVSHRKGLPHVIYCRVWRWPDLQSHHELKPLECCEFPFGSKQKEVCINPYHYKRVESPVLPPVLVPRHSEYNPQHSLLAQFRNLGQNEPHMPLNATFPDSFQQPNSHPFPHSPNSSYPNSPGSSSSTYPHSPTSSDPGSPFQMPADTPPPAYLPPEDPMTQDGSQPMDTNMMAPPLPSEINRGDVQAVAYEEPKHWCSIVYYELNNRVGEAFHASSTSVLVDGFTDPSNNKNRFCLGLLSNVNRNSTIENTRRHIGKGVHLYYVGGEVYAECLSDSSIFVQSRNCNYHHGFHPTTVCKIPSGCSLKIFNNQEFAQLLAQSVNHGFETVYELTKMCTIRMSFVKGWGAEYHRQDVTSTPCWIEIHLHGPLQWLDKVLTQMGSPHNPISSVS

In this experiment the target is SMAD2 (human (endogenous in EAhy926)) (UniProt Q15796). Description: proximity ligation; Duolink in situ PLA on monolayers of EAhy926 endothelial cell clones (BMPR2wt, BMPR2ΔE2, BMPR2KO) on glass coverslips, serum starved for 6 h, TGFβ (200 pM) for 15 min; endogenous proteins, pairs of specific antibodies.

These are yes or no findings as the source states them, for the method shown. In cells and extracts the contact can be indirect. Some entries that bind do so weakly or less than the wild type.

On to SMAD1 (from UniProt Q15797 1-465), for which the binding entry is given as “binds”.
